Test system: established implanted B16 melanoma
Assay: Experiment 2: isoprenoid-enriched diets, survival of mice bearing established melanomas
Assay type: in vivo, C57BL female mice
Conditions: diets started after tumor detection, n = 12
Experimental: Where noted, β-ionone was added to the oil. The diets, mixed weekly, were stored under refrigeration. Food cups were cleaned and refilled daily.
Experiment 2: Weanling female C57BL female mice (n=60, Harlan Sprague-Dawley) were acclimated to the housing conditions and AIN-76A diet (116 μmol dl-α-tocopherol/kg diet) as described above. Tumors were implanted and the mice continued to receive the AIN-76A diet. Beginning on day 8 post-implant the mice were palpated daily for the presence of a tumor. Tumors were first detected on day 14. Random numbers were generated for assigning each mouse in a sequential subset of five to a diet. Experimental treatments provided 2 and 4 mmol d-γ-tocotrienol/kg diet. We additionally tested the impact of β-ionone (2 mmol β-ionone/kg AIN-76A diet) and that of a blend of the two isoprenoids (2 mmol each/kg diet) on the survival of the mice.
We then asked if either dietary d-γ-tocotrienol or β-ionone would prolong the survival of mice bearing implanted melanomas. Dietary treatments were initiated following the detection of solid tumors. We also asked whether these structurally diverse isoprenoids would have an additive effect on survival. The experimental groups were constructed by random assignment of each member of successive subsets of 5 mice to one of the experimental diets. […] Treatments increased median duration of survival by 42±4.5% and the mean duration of survival by 30% (P<0.005); differences between duration of survival means of the experimental groups were not significant (Table 3, FIG. 3). FIG. 3 is a survival curve for host mice receiving isoprenoid-enriched diets following the detection of a solid implanted B16 melanoma. Mean survival durations are presented on Table 4. β-ionone and γ-tocotrienol^1 treatments provided 2 mmol of the isoprenoid/kg diet; the blend provided 2 mmol of each isoprenoid/kg diet; and γ-tocotrienol^2 provided 4 mmol γ-tocotrienol/kg diet.

[1] = group assigned to 2 mmol/kg diet

Compound	Days to tumor [1] [days]	Days to tumor (group assigned to 4 mmol/kg diet) [days]
CC(C)=CCCC(C)=CCCC(C)=CCCC1(C)CCc2cc(O)c(C)c(C)c2O1 (stereo not drawn) [d-γ-Tocotrienol, 2,7,8-trimethyl-2-(4,8,12-trimethyltrideca-3,7,11-trienyl)-chroman-6-ol]	14.92	14.92
CC(=O)C=CC1=C(C)CCCC1(C)C [β-Ionone]	14.92	
